In patent publication US10945978B2, “Treatment and diagnosis of melanoma” (The Rockefeller University, priority 2012, dated 2021):
At least one structure is not confirmed: it was looked up by name or label, or the drawing left a doubt.

How the values were obtained:
[1] = test system: MeWo, MeWo-LM2, HT-144, SK-Mel-2 and SK-Mel-334.2 human melanoma cells; experiment: Trans-well matrigel cell invasion assay, melanoma cells; type: cell-based; details: 1 μM for 72 hours, relative to lower potency LXR agonists
Procedure: Cancer cells were serum-starved in 0.2% FBS DMEM-based media for 12 hours. Trans-well invasion chambers (354480, BD Biosciences, Bedford, Mass.) were pre-equilibrated prior to beginning the assay by adding 0.5 mL of starvation media to the top and bottom chambers. After 30 minutes, the media in the top chamber was removed, and 0.5 mL of media containing 1×10^5 cancer cells was added into each matrigel-coated trans-well insert and incubated at 37° C. for 24 hours. […] The basal side of each insert was imaged using an inverted fluorescence microscope (Zeiss Axiovert 40 CFL) at 5× magnification, taking three representative images for each insert. The number of invaded cells was quantified using ImageJ (NIH). […]
The cells were then serum starved for 16 hours in 0.2% FBS media in the presence of each corresponding drug or DMSO. […] Meanwhile, cancer cells were trypsinized and viable cells were counted using trypan blue. […] The basal side of each insert was imaged using an inverted fluorescence microscope (Zeiss Axiovert 40 CFL) at 5× magnification, and the number of DAPI-positive cells was quantified using ImageJ.

[2] = test system: B16F10 mouse melanoma cells; experiment: Subcutaneous B16F10 tumor growth in C57BL/6 mice; details: in chow: WO-2010-0138598 Ex. 9 10 or 100 mg/kg/day, SB742881 100 mg/kg/day

Compound: CC(CCOc1cccc(CC(=O)O)c1)N(Cc1cccc(C(F)(F)F)c1Cl)CC(c1ccccc1)c1ccccc1 (centres unmarked) [SB742881 25]
- inhibition of in vitro cancer progression phenotypes (cell invasion, endothelial recruitment) [1]: more effective
- melanoma primary tumor growth [2]: significantly inhibited
